Primary screen of a compound library

Amino acid sequences for entries named in this document (tags omitted).
UniProt E9BF75, entry or part of it: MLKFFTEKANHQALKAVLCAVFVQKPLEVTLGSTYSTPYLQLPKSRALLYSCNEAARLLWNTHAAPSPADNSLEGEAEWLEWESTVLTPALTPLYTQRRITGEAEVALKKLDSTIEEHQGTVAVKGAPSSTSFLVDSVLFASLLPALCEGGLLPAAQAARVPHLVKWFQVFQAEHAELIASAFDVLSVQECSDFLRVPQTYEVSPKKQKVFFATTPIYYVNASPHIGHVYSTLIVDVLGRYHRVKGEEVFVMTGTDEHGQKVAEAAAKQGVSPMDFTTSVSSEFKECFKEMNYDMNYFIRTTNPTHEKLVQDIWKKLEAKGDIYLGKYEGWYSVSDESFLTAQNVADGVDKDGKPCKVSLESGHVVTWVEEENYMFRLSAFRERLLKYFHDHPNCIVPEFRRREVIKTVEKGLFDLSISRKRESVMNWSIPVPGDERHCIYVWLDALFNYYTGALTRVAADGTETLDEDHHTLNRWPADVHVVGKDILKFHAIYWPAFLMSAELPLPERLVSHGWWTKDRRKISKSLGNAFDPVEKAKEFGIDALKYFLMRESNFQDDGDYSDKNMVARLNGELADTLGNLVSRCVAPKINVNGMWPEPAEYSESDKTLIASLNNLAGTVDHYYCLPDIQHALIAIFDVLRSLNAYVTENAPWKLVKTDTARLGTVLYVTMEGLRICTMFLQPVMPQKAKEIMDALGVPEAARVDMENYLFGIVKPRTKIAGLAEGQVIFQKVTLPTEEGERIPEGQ

Measurements from “University of Dundee, Small-Polar-MMV Screening Library” (2021), ChEMBL document CHEMBL3988442.

All values are in %.
How 0% and 100% were set is not recorded. Most values in the screen are low, and negative values occur.
This is an unselected part of the compounds tested.
A dash means the value is not listed here; it may have been measured.

LdMetRS: 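Primary screen of methionyl-tRNA synthetase; the read-out is not stated. Target: Methionyl-tRNA synthetase (putative), Leishmania donovani (UniProt E9BF75). The test concentration is not given. The values are filed as inhibition. About 68,000 compounds were tested under these conditions; 0.035% (about 24) showed 50% or more at least once.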
Mtb heat-shock: 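Assay on Mycobacterium tuberculosis, filed only as a heat shock assay from Cornell; the read-out is not stated. The concentration is filed as 10 mM, unlikely as a test dose, so the dose is not known. Direction is inferred from retests: higher values go with stronger inhibition. Size under these conditions: about 69,000 compounds, about 930 of them at 50% or above in at least one test.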

Compound,LdMetRS,Mtb heat-shock
O=C1CCC2(CCCN(C(=O)c3cccnc3)CC2)N1 (stereo not given),14.44%,14.36%
CCn1ncc2c1CN(C(=O)Cc1cccs1)CC2COC.O=C(O)C(F)(F)F (stereo not given),-,1.467%
Cc1noc(C)c1C(=O)N1CCCC1c1c(C)nn(C)c1Cl (stereo not given),7.042%,4.854%
O=C1C[C@@H]2CCN(Cc3ccccc3)C[C@@H]2CCN1c1ccccc1,8.242%,-
COc1cccc(-c2csc(Cn3ccc(=O)[nH]c3=O)n2)c1,15.71%,1.079%
COc1ccc(C(CC(=O)NCc2n[nH]c(N)n2)c2ccccc2)cc1 (stereo not given),18.66%,17.24%
O=S1(=O)CCC(n2cc(C3=CCN(CCN4CCCCC4)CC3)cn2)C1 (stereo not given),18.12%,20.97%
CCCOc1ccc2ccccc2c1CN1CC[C@@]2(O)CCNC[C@H]2C1,11.64%,-
CC(C)NC(=O)N1CCC(c2nnc3ccc(C(=O)N(C)C)cn23)C1 (stereo not given),-7.268%,3.231%
CNC(=O)CN1CCC2(CC1)C[C@@H](O)[C@H](c1ccccc1)NC2=O,18.71%,2.698%
CC(C)n1c(=O)c2sccc2n(CC(=O)Nc2cccc(Cl)c2)c1=O,2.857%,-0.5586%
CCc1ncnc2c1CCN(CCOC)CC2,14.03%,-
CCn1nccc1CNC(=O)C1CC1,11.02%,-10.07%
O=C1CC2(CCN(CCO)CC2)CN1Cc1cc(F)cc(F)c1,12.39%,-16.03%
O=C(CC1CCCC1)N1CCCC1c1ccc(CN2CCOCC2)cn1 (stereo not given),12.46%,-3.804%
O=C1CC(c2ccccc2)c2c(n3ccsc3nc2=O)N1 (stereo not given),9.544%,4.42%
COCC(=O)N1CCCC(C(=O)N(C)CCn2ccnc2C)C1 (stereo not given),-3.069%,9.35%
O=C(O)C(F)(F)F.[H][C@@]12CCN(Cc3ccsc3)C[C@]1([H])[C@H](C(=O)Nc1cnccn1)CCO2,-,4.926%
O=C(CCc1ccco1)N1CCCN(Cc2cscn2)CC1,12.54%,23.86%
COc1ncc(C(=O)NCc2ccc(Br)cc2)cn1,10.56%,23.03%
CCC(C)N(Cc1ccncc1)Cc1ccccc1Cn1cccn1 (stereo not given),8.108%,-30.39%
COc1ccc(Cl)cc1S(=O)(=O)N1C[C@@H]2CC[C@H](C1)N(C)C2=O,7.5%,-
CCN(CC)Cc1cc(=O)n2c(n1)CN(C(=O)c1ccnnc1)CCC2,9.29%,-
O=C(NCCN1CCCCCC1)c1n[nH]c(=O)c2ccccc12,15.66%,-9.311%
O=C(Cc1n[nH]c2ccccc12)N1CCCCC1Cn1cccn1 (stereo not given),8.434%,4.387%
CCc1ncc2c(n1)CN(Cc1nc(-c3ccco3)oc1C)CC2,22.86%,14.53%
O=C(c1sccc1C1CC1)N1CCN(c2nccs2)CC1,6.72%,-7.031%
O=C(NCCn1ccnc1)NCC(c1ccco1)N1CCCC1 (stereo not given),16.57%,-6.859%
O=C(c1cccc(O)c1)N1CCC2(CCN2c2ncccn2)C1 (stereo not given),13.5%,-
O=C(O)C(F)(F)F.[H][C@]12CCC[C@@]1(COc1ccccn1)CN(C(=O)C1CCOCC1)C2,-,-21.84%
[H][C@]12CC[C@]([H])(CN(C(=O)c3ccc4c(c3)OCO4)C1)N(CC=C(C)C)C2,-,0.9042%
CCc1ccc(C(C)NC(=O)CCc2nc(-c3nnc[nH]3)no2)cc1 (stereo not given),10.56%,1.782%
O=C(NCC(Cc1cccc(F)c1)N1CCCC1=O)c1ccc[nH]c1=O (stereo not given),18.1%,4.526%
NC(=O)CN1CCCN(C(=O)Cc2ccc(F)c(Br)c2)CC1,18.88%,-10.28%
Cc1cc(=O)n2c3c(cc(S(=O)(=O)NC4CC4)cc13)CCC2,2.261%,-20.06%
CCCN1CC2(CCN(C)CC2)CC1C(=O)NCCn1cc(C)cn1 (stereo not given),5.944%,-19.85%
CO[C@@H]1CC[C@@H](N(C)C(=O)c2cn3cc(C)ccc3n2)[C@H]1O,6.854%,-6.531%
CCN1CCC(CNC(=O)C2(c3cccc(C)c3)CCCCC2)CC1,10.6%,-16.02%
COCC(=O)NC(C)Cc1cccc(OC)c1 (stereo not given),14.29%,21.06%
CC(C)c1nc(CN(C)C(=O)Cn2nc3ccccc3n2)no1,12.41%,0.822%
O=C(COCC(=O)N(c1ccccc1)c1ccccc1)N1CCCCC1,10%,-3.934%
OC(CN1CC(n2cccn2)C1)c1ccc2c(c1)OCCO2 (stereo not given),9.384%,5.64%
CCCn1ncc(CN2C[C@@H]3CCCN3C[C@@H]2CCSC)c1C,7.877%,-
CC(C)(C)c1oc(C(N)=O)cc1CN1CCCCC1CN1CCOCC1 (stereo not given),4.969%,-16.23%
Cl.O=c1c2sccc2nc2n1CCN(Cc1ccc(F)c(F)c1)CC2,-,4.258%
c1cc(CO[C@@H]2CN(Cc3ccoc3)[C@@H]3CCCO[C@@H]32)ccn1,16.54%,-
[H][C@@]12CCN(C(=O)c3cscn3)[C@]1([H])CN(C(=O)c1ccsc1)C2,-,16.49%
Cc1cc(C)nc(NC2CCc3nc(C)nn3C2)n1 (stereo not given),9.192%,-20.41%
CCOc1cccc(NS(=O)(=O)c2cc(C(=O)O)cs2)c1,10.97%,20.99%
O=c1ccc(-c2cccs2)nn1CN1CCCCCC1,14.52%,14.98%
CN(C)C(=O)c1c[nH]nc1C1CCN(S(=O)(=O)c2ccccc2)CC1,4.199%,10.69%
CCN(Cc1nonc1C)C(=O)c1cc(C(F)(F)F)nn1C,23.87%,-20.48%
Cc1noc(-c2ccc(N[C@H]3CCCCNC3=O)nc2)n1,7.326%,2.334%
CCc1nc(CN2CCCC2c2c(C)nn(C)c2OC)no1 (stereo not given),16.91%,-3.764%
O=C(Cn1ccc2c(Cl)cccc21)Nc1nc[nH]n1,17.62%,4.203%
CNCCc1nc2cc(F)ccc2[nH]1.Cl.Cl,-,-2.372%
CC(C)(C)c1c[nH]c([C@@H]2COCCN2C2CCNCC2)n1,12.54%,4.647%
Cc1cnc(CCNC(Cc2ccncc2)C(F)(F)F)s1 (stereo not given),9.574%,-0.06665%
O=C(O)C(F)(F)F.[H][C@@]12CN(Cc3ccoc3)CCO[C@]1([H])CN(C(=O)CCc1ccccc1)C2,-,14.93%
COCC1CN(c2ccc(C)nn2)Cc2cnn(C)c21.O=C(O)C(F)(F)F.O=C(O)C(F)(F)F (stereo not given),-,33.23%
c1cnc(N2CCC3(COCCN(CC4CCOCC4)C3)C2)nc1 (stereo not given),10%,-
Cc1cnn(CCC(=O)N2CCN(C(=O)C3CC3)[C@@H]3CS(=O)(=O)C[C@@H]32)c1,13.81%,-
COc1ccc(NC(=O)C2CCOC2)c(N2CCN(C(C)=O)CC2)n1 (stereo not given),14.29%,5.434%
O=C(O)C(F)(F)F.[H][C@@]12CN(CC)C[C@]1([H])[C@@H](OC)CCN2S(=O)(=O)c1ccccc1,-,-5.885%
O=C(O)C(F)(F)F.[H][C@@]12C[C@@H](C(=O)NC(C)C)C[C@@]1([H])N(Cc1nccs1)CCO2,-,-30.52%
Cc1cnn(CC(C)NCC(=O)NC2CCOCC2)c1 (stereo not given),10.51%,-13.24%
Cc1ccc(CNCc2nnc3n2CCCC3C(F)(F)F)s1 (stereo not given),13.66%,-2.936%
CN1[C@@H](C(=O)NCC2CC2)C[C@H]2CN(Cc3ccsc3)C[C@H]21,4.808%,-
O=C1C(NS(=O)(=O)c2ccc(F)cc2)CCN1Cc1ccccc1 (stereo not given),20%,-23.15%
CCn1cc(C(=O)NCC(OC)c2cccc(Cl)c2)cn1 (stereo not given),15.94%,18.44%
CCN(CC)Cc1ccc(C(=O)N2CCN(CC(C)O)CC2)cc1 (stereo not given),8.497%,9.654%
CC1CCCN1Cc1cccc(C(=O)Nc2ccc3[nH]c(=O)oc3c2)c1 (stereo not given),2.821%,-15.06%
CC[C@@H]1N(Cc2ccc(OC)cc2)CCC[C@]12CCC(=O)N2CCOC,2.538%,-
O=C(N1CCCC1)N1CCCC(c2nccn2Cc2ccncc2)C1 (stereo not given),14.89%,-34.65%
Cc1cc(OCCC(=O)NCc2ccc(F)cc2)nnc1C,15.92%,-8.559%
COc1ccc(CN2CC(O)CN(C(=O)OCC(C)C)CC2=O)cc1 (stereo not given),-4.658%,43.83%
COc1ccccc1C(C)(C)NCc1ccco1,5.344%,5.083%
O=C(CN1CCCC1)N1CCCC(c2cc(=O)n3c(n2)CCCCC3)C1 (stereo not given),7.717%,-3.222%
COc1cc(CCC(=O)NCC2CC2)ccc1OCC(F)(F)F,10.86%,-20.41%
CC(=O)NCCc1ccc(S(=O)(=O)N(C)C(C)CC(C)C)s1 (stereo not given),7.865%,-17.44%
CC(C)c1cccc(-n2cc(O)c(C(=O)O)n2)c1,18.56%,-4.366%

For reference, 4 entries once more:

Compound	LdMetRS	Mtb heat-shock
COCC(=O)NC(C)Cc1cccc(OC)c1 (stereo not given)	14.29%	21.06%
O=C1CC2(CCN(CCO)CC2)CN1Cc1cc(F)cc(F)c1	12.39%	-16.03%
CC[C@@H]1N(Cc2ccc(OC)cc2)CCC[C@]12CCC(=O)N2CCOC	2.538%	-
Cc1ccc(CNCc2nnc3n2CCCC3C(F)(F)F)s1 (stereo not given)	13.66%	-2.936%